Test results: patent US7074834B2, “Long acting, reversible veterinary sedative and analgesic and method of use” (University of Kentucky Foundation, priority 2000, dated 2006)
Some entries share one result that the patent states for a list of compounds.

System: horse
Test: Sedation / head ptosis response in the standing horse after intravenous administration
Assay type: in vivo
Settings: adult horse, single intravenous administration of about 100 mg
Protocol: As used herein by “rapid onset” is meant to include the time interval from administration of the active, e.g., guanabenz acetate, until the drug begins to take effect and produce the intended response, e.g., sedation and/or tranquilization and /or analgesia. For the compositions disclosed herein, this time interval typically ranges from between about 1 minute to about 30 minutes. As one of skill in the art can appreciate, the length of time for onset of action can vary, e.g., depending upon the route of administration, the species, age, size, and health status of the animal and the like. In the adult horse, for example, the clinical signs of sedation will begin to appear within 1–3 minutes following a single intravenous administration of about 100 mg of guanabenz or guanabenz acetate.
The term “analgesia” or “analgesic” is meant to include any conscious relief from a painful stimulus in an animal. In general, an analgesic is an agent that alleviates pain or reduces the sensation of pain without causing loss of consciousness. […] Thus, the establishment of this time interval is subjective but is readily ascertainable in the hands of the skilled artisan. […]
The solid circles (● - - - ●) show head ptosis measured as cm above ground level after rapid intravenous administration of guanabenz.

## N=C(N)N/N=C/c1c(Cl)cccc1Cl [guanabenz, 1-[2,6-dichlorobenzylidine-amino]-3-guanidine]
  duration of action: up to 4 hours
  time until clinical signs of sedation begin to appear: 1 to 3 min
